# Assay results as given in US20140348966A1, “GARCINIA BUCHANANII BAKER COMPOUNDS, COMPOSITIONS AND RELATED METHODS” (priority 2011, published 2014).
# Some of these results come from one statement about several compounds together.
# Test system: Wistar rats with high-lactose diet-induced diarrhea
# Test: high-lactose diet (HLD) induced diarrhea in rats
# Assay type: in vivo
# Conditions: all doses of extract (0.1-5.0 g/L); PTLC1, PTLC5; loperamide 8.4 mg/L
# Protocol: A high-lactose (35%) diet induced diarrhea in Wistar rats, which were then treated with either G. buchananii bark extract (0.1, 0.5, 1.0 and 5.0 g bark powder) or its anti-motility fractions isolated using preparative thin layer chromatography; termed PTLC1 (15 mg) and PTLC5 (3.8 mg) or loperamide (8.4 mg), each dissolved in 1 liter of tap water. Numerous parameters were measured in each condition including consistency, fluid and mucus content of feces, body weight, water and food consumption, urine production and bloating.
# The study was conducted in accordance with the regulations of the University of Idaho Institutional Animal Care and Use Committee (IACUC). Sixty two, 10 week old Wistar rats were obtained from Harlan Animal Research Laboratory (Hayward Calif., USA). Rats were individually caged (23-24° C.; 12:12 h light-dark cycle) and quarantined for one week. Rats were fed a standard chow diet ad libitum (Animal Specialties, Hubbard, Oreg., USA) and had free access to water for four days prior to the inducement of diarrhea. […] Rats were monitored for changes in consistency of pellets and stool mass, fecal fluid and urine production (mass; g and volume; ml). […]
# We studied the impact of a HLD and all the treatments on the consistency, form and appearance of feces. Body weight, food and water intake were measured every two days for the entire period. […]
structure (smiles),measurement,value
CN(C)C(=O)C(CCN1CCC(O)(c2ccc(Cl)cc2)CC1)(c1ccccc1)c1ccccc1 [loperamide],time to stopping of / recovery from HLD-induced diarrhea after start of treatment,6 to 24 h
